From PMC7037731, “Synthesis, Anticancer Activity, and Preliminary Pharmacokinetic Evaluation of 4,4-Disubstituted Curcuminoid 2,2-bis(Hydroxymethyl)Propionate Derivatives” (Molecules, 2020) come the findings set out here.

A short description of this data set: Solubility in aqueous dosing vehicle. Particulars: 5% ethanol, 10% Tween 80, 85% saline. It is filed as physicochemical. From the text: Subsequently, the latter would be converted into glucuronide 22 and sulfate 23 through the phase II metabolism conjugation of hydrogenated products 18, 19, 20, and 21 via the phase I metabolic pathway (Scheme 6). To verify our assumptions, the preliminary pharmacokinetic evaluation of 2 was executed.

For `COc1cc(/C=C/C(=O)CC(=O)/C=C/c2ccc(O)c(OC)c2)ccc1O` [Curcumin, (1E,6E)-1,7-bis(4-hydroxy-3-methoxyphenyl)hepta-1,6-diene-3,5-dione], the “solubility in aqueous vehicle” value is “almost insoluble”.
